Results: PMC7979541
Numbering of substitutions follows the chain as printed. Numbers in names are those of the source. These are yes or no findings as the source states them, for the method shown. In cells and extracts the contact can be indirect. Some results given as binding are weak or reduced against the parent protein; the word gives no strength. For part of these data: Where a sequence is shown, tags or fusion partners need not be part of it.

Sequences of proteins named here, by UniProt entry; tags and fusion partners are left off.
UniProt Q07820: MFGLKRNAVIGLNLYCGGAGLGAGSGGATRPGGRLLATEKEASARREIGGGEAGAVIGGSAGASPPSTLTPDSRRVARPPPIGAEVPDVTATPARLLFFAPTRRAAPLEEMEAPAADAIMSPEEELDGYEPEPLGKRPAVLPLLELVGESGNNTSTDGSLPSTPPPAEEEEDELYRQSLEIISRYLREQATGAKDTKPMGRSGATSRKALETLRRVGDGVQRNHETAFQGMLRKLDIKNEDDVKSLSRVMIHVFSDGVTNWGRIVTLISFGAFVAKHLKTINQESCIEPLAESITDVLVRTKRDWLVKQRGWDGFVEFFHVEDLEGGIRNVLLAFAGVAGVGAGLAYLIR

Key:
[1] = target: V5-hMcl-1 (human), Q07820; experiment: co-IP; HEK293T cells transfected with V5-Mcl-1, FLAG-USP13 or both; 10 µM MG132 for 6 h; immunoprecipitation with anti-FLAG or anti-V5 antibody, A/G agarose beads, 4 °C overnight; western blot; conditions: remark: other sources report otherwise
[2] = target: endogenous Mcl-1 (human (endogenous in HeLa and SiHa)), Q07820; experiment: co-IP; endogenous proteins in HeLa and SiHa lysates after 10 µM MG132; immunoprecipitation with anti-USP13 or anti-Mcl-1 antibody; western blot; conditions: remark: other sources report otherwise
V5-hMcl-1 (human) = V5-hMcl-1 (human) (UniProt Q07820); experiment: co-IP; HEK293T cells co-transfected with V5-Mcl-1, HA-Ubiquitin and FLAG-USP13 (C345A); MG132; V5-Mcl-1 immunoprecipitated (anti-V5 by the text, anti-Mcl-1 by the legend); western blot (Fig. 5C; Supplementary Fig. 6)

B1: FLAG-USP13, Q92995 1-863 (enzyme)
chain: MQRRGALFGMPGGSGGRKMAAGDIGELLVPHMPTIRVPRSGDRVYKNECAFSYDSPNSEGGLYVCMNTFLAFGREHVERHFRKTGQSVYMHLKRHVREKVRGASGGALPKRRNSKIFLDLDTDDDLNSDDYEYEDEAKLVIFPDHYEIALPNIEELPALVTIACDAVLSSKSPYRKQDPDTWENELPVSKYANNLTQLDNGVRIPPSGWKCARCDLRENLWLNLTDGSVLCGKWFFDSSGGNGHALEHYRDMGYPLAVKLGTITPDGADVYSFQEEEPVLDPHLAKHLAHFGIDMLHMHGTENGLQDNDIKLRVSEWEVIQESGTKLKPMYGPGYTGLKNLGNSCYLSSVMQAIFSIPEFQRAYVGNLPRIFDYSPLDPTQDFNTQMTKLGHGLLSGQYSKPPVKSELIEQVMKEEHKPQQNGISPRMFKAFVSKSHPEFSSNRQQDAQEFFLHLVNLVERNRIGSENPSDVFRFLVEERIQCCQTRKVRYTERVDYLMQLPVAMEAATNKDELIAYELTRREAEANRRPLPELVRAKIPFSACLQAFSEPENVDDFWSSALQAKSAGVKTSRFASFPEYLVVQIKKFTFGLDWVPKKFDVSIDMPDLLDINHLRARGLQPGEEELPDISPPIVIPDDSKDRLMNQLIDPSDIDESSVMQLAEMGFPLEACRKAVYFTGNMGAEVAFNWIIVHMEEPDFAEPLTMPGYGGAASAGASVFGASGLDNQPPEEIVAIITSMGFQRNQAIQALRATNNNLERALDWIFSHPEFEEDSDFVIEMENNANANIISEAKPEGPRVKDGSGTYELFAFISHMGTSTMSGHYICHIKKEGRWVIYNDHKVCASERPPKDLGYMYFYRRIPS
- binding [1]: binds

B2: endogenous USP13, Q92995 1-863 (enzyme)
chain: B1 chain
- binding [2]: binds

B3: FLAG-USP13 (C345A) (enzyme, UniProt Q92995 1-863)
chain: B1 chain with C345A
- binding (V5-hMcl-1 (human)): binds
